For 16 compounds, degeneracy results are on record in the supplement of paper PMC7752906.

The structures appear in SMILES notation. Structures can show the parent of a compound that is named as a salt. The list shows a part of the results. Single values are uncertain here, since repeats match poorly.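 Test system: Schistosoma mansoni schistosomula, roughly 40 per well, imaged in bright field over time and compared with wells given 0.1% DMSO. Distance read-out: the paper calls a drug a hit when its Mahalanobis distance is at least 2.47, three standard deviations above the DMSO control mean. Degeneracy is the share of worms classified opaque.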 Numbered stars: 1 amine (or outer) side, 2 acyl side, 3 side chain; on linkers, the order of the positions; unused ones are H or OH. Bridge positions count the residues as written; N and C are the ends. Square brackets hold non-standard residues; d marks the D form. Peptide text beside a SMILES is read from it. * marks the point of attachment. ξ: configuration not given here. X2 = N=C1NCCC([C@H](N[*:1])C(=O)[*:2])N1; ΔAla(Z-3-ureido) = NC(=O)N/C=C(\N)C(=O)O; ξβ3hOrn = NCCCC(N)CC(=O)*; Dap = NC[C@H](N)C(=O)O

The assay concerns Schistosoma mansoni schistosomula. The assay can be described thus: degeneracy (percent of somules classified as degenerate/opaque); higher = more parasite degeneration/death; extreme values may be limits of the assay. Conditions: 10 µM; 72 h.
In turn, `CC12CCC(CC1=O)C2(C)C` [D-camphor] displayed a degeneracy of 17.9%. The figure for `C[C@@H]1NC(=O)[C@@H](N)CNC(=O)[C@H](C2CCNC(=N)N2)NC(=O)/C(=C/NC(N)=O)NC(=O)[C@H](CNC(=O)CC(N)CCCN)NC1=O.N=C1NCC[C@H]([C@@H]2NC(=O)/C(=C/NC(N)=O)NC(=O)[C@H](CNC(=O)C[C@@H](N)CCCN)NC(=O)[C@H](CO)NC(=O)[C@@H](N)CNC2=O)N1` [Capreomycin Sulfate] (H-[Dap]S[Dap](ξβ3hOrn)[ΔAla(Z-3-ureido)][X2]; lactam 1-C) is 2.94%; for `CN[C@@H]1[C@@H](O[C@H]2O[C@H](CO)[C@@H](N)[C@H](O)[C@H]2O)OC2C[C@@H](N)[C@@H](O[C@H]3[C@H](O)[C@@H](O)[C@H](N)C[C@@H]3N)OC2[C@@H]1O` (stereo partly specified) [Apramycin Sulfate] it is 6.9%. The compound `O=C(N[C@H](CO)[C@H](O)c1ccc([N+](=O)[O-])cc1)C(Cl)Cl` [Chloramphenicol] registered a degeneracy of 0%.

Consider `CCC[C@@H]1C[C@@H](C(=O)N[C@@H]([C@H]2O[C@H](SC)[C@H](O)[C@@H](O)[C@H]2O)[C@H](C)Cl)N(C)C1` [Clindamycin Hydrochloride], for which the degeneracy came to 3.57%. The figure for `C[n+]1c2cc(N)ccc2cc2ccc(N)cc21` [Acriflavinium Hydrochloride] is 100%; for `C=C1/C(=C\C=C2/CCC[C@]3(C)[C@@H]([C@H](C)CCCC(C)C)CC[C@@H]23)C[C@@H](O)C[C@@H]1O` [Alfacalcidol] it is 1.72%; for `CC(C)(CO)C(O)C(=O)NCCCO` (stereo unspecified) [Panthenol] it is 12.5%. The figure for `CCOc1ccc2ccccc2c1C(=O)N[C@@H]1C(=O)N2[C@@H]1SC(C)(C)[C@@H]2C(=O)O` [Nafcillin Sodium] is 6.25%. For `Cn1cnc2c1c(=O)[nH]c(=O)n2C` [Theobromine], the degeneracy stood at 6.67%. The figure for `OCc1cccnc1` [Nicotinyl Alcohol Tartrate] is 4.76%; for `CN(C)CCC=C1c2ccccc2COc2ccccc21` [Doxepin] it is 20.5%. The figure for `CN(C)CCC=C1c2ccccc2COc2ccccc21` [Doxepin Hydrochloride] is 20%; for `CN1[C@@H]2CC[C@H]1C[C@@H](OC(=O)c1c[nH]c3ccccc13)C2` [Tropisetron] it is 7.69%. The figure for `Cc1cccc(C)c1OCC(C)N` (stereo unspecified) [Mexiletine] is 2.17%; for `NC[C@@H]1O[C@H](O[C@H]2[C@@H](O)[C@H](O[C@@H]3[C@@H](O)[C@H](N)C[C@H](N)[C@H]3O[C@H]3O[C@H](CO)[C@@H](O)[C@H](O)[C@H]3N)O[C@@H]2CO)[C@H](N)[C@@H](O)[C@@H]1O` [Paromomycin Sulfate] it is 3.64%.
